Structures can show the parent of a compound that is named as a salt.
System: HCT116
Conditions: 72 h
Outline: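 HCT116 cells were seeded at 250 per well in 1536-well plates and left 5 h to attach. CellTiter-Glo luminescence was scaled to vehicle (0%) and positive control (-100%), then pattern-corrected. IC50 and maximal efficacy came from four-parameter Hill fits.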

Structure (SMILES)	IC50 cell viability (ICRF193 0 nM) [µM]	IC50 cell viability (ICRF193 200 nM) [µM]
CCC(C)C(C(=O)OCC[N+](C)(CC)CC)c1ccccc1 (centres undefined)	> 45.8	> 45.8
CN1[C@@H]2CC[C@H]1C[C@@H](OC(=O)C(O)c1ccccc1)C2 (some centres undefined) [Homatropine hydrobromide]	> 45.8	> 45.8

— the supplement of paper PMC12137928
